One data set has as its system P. falciparum Hsp90. The format is binding, Plasmodium falciparum. On the procedure: Full-length human recombinant HSP90α was purchased (Cayman Chemicals, MI), while the malaria recombinant parasite proteins were generated according to the following protocol. […] Growth at 37 °C continued until the OD600 reached ~1.0, whereupon the temperature was lowered to 18 °C and protein expression was induced by the addition of 1 mM isopropyl β-D-thiogalactopyranoside (IPTG). Overnight post-induction cells were collected by centrifugation and resuspended in binding buffer [50 mM Hepes pH 7.5, 500 mM NaCl, 1 mM benzamidine, and 1 mM phenylmethanesulfonyl fluoride (PMSF)]. The cells were lysed by adding chemical lysis buffer (2% CHAPS, 0.1 mg/mL lysozyme and 0.5 U/mL benzonase), the lysate was clarified by centrifugation. The supernatant was loaded on to a nickel-nitrilotriacetic acid column pre-equilibrated with binding buffer (50 mM Hepes pH 7.5, 500 mM NaCl). […] The final protein products and samples for different steps in the purification procedures were evaluated in SDS-Page gels.
SPR measurements were performed on Biacore T200 instrument (GE Healthcare) at 25 °C. […] The Biacore responses recorded during the 30 s of the injection were used to estimate the association constant (k on) and the 300 s after the injection were used to estimate the dissociation constant (k off). […]

Data set [1] relates to Primary normal human lung fibroblasts (NHLFs). Kind of data set: Drug cytotoxicity assay (MTT). To be noted: NHLF IC50 vs P. falciparum IC50.

Here are results for 3 compounds from publication PMC5518105, “Identification and characterization of the antiplasmodial activity of Hsp90 inhibitors” (Malaria Journal, 2017).

Where two headings read alike, the source gives them in different places.

Take `CC(C)NCCCn1c(Sc2cc3c(cc2I)OCO3)nc2c(N)ncnc21` [PUH71]: the “affinity difference, parasite chaperone vs human counterpart” value in the data set with P. falciparum Hsp90 is reported as “over 1000 fold”.

On to `CC(C)NCCCn1c(Sc2cc(Cl)cc(Cl)c2)nc2c(N)ncnc21` [PUWS13], for which, in the data set on P. falciparum Hsp90 (lower for the parasite chaperone), the “affinity difference, parasite chaperone vs human counterpart” value was “over 1000 fold”.

In the case of `CO[C@H]1/C=C\C=C(/C)C(=O)NC2=CC(=O)C(NCCN(C)C)=C(C[C@@H](C)C[C@H](OC)[C@H](O)[C@@H](C)/C=C(\C)[C@@H]1OC(N)=O)C2=O` [17-DMAG, 17-(dimethylaminoethylamino)-17-demethoxygeldanamycin], the “difference between the parasite and host IC50s” value in data set [1] is above 70 fold.
